# No constants are given. Whether binding was seen depends on the method and setting. Binding seen in cells or lysates may run through a third protein. Some entries that bind do so weakly or less than the wild type. Sequences can lack the tags named with a protein.
# By UniProt entry, the sequences of proteins in these tests, tags left out. Residues count along the entry.
# UniProt P11142: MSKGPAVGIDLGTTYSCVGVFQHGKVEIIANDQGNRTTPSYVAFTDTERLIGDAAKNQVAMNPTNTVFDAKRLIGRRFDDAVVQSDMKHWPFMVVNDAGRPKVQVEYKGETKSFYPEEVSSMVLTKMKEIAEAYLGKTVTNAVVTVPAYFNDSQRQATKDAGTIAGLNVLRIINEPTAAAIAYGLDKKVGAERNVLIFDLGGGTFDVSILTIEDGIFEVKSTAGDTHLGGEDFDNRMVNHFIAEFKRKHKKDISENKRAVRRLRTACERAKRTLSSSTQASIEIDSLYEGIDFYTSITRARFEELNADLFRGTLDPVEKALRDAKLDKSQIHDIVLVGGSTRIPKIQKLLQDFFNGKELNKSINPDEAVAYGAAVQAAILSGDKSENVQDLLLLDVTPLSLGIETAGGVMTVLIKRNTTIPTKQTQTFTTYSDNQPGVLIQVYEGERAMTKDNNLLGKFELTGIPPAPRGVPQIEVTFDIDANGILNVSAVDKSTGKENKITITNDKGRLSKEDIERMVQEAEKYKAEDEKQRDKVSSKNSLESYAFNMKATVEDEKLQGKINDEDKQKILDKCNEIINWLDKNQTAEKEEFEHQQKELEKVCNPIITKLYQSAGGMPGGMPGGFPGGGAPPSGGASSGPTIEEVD
# UniProt P38646, residues 47-679: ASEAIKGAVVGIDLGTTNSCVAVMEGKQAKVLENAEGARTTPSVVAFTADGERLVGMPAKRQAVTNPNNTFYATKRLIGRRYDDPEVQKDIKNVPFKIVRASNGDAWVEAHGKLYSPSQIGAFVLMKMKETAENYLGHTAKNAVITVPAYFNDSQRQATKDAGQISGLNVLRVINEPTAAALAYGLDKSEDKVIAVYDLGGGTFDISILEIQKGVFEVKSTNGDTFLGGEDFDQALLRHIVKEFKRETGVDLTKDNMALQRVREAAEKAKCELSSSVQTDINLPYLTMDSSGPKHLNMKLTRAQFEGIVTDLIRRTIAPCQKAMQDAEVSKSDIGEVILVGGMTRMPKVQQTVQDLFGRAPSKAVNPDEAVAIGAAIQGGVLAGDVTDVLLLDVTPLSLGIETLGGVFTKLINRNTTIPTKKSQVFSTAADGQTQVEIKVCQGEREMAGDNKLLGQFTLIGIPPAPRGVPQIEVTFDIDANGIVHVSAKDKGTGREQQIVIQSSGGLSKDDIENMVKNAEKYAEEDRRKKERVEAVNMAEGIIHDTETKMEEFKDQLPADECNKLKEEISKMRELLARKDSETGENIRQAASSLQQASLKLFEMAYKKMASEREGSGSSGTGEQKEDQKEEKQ
# Molecular target: T1, CD24 overexpressed from the pcDNA4-CD24-myc plasmid in HT29 cells (human) (UniProt P25063)
# T1 sequence: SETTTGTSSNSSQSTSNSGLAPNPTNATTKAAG
# Experiment: co-IP; Grp75 and Hspa8/Hsc71 co-immunoprecipitated with CD24 (Supplementary Figure S2); cells and antibodies not given
row,binding,Substance
1,binds,Hspa8/Hsc71 (from UniProt P11142 1-646)
2,binds,Grp75 (from UniProt P38646 47-679)

# Source: publication PMC5342444
